Test results as given in patent US12685780B2, “Immune inducer containing polynucleotide-peptide conjugate and pharmaceutical composition containing same” (The University of Kitakyushu, priority 2020, dated 2026).

system: ERAP; test: In vitro evaluation of peptide cleavage by ERAP; assay type: biochemical; settings: in vitro evaluation using the peptide

Susceptibility of the peptide to cleavage by ERAP, became susceptible to cleavage by ERAP:
C-TRP2-11: CNASVYDFFVWL (SEQ ID NO: 37); cysteine added to N-terminus of mTRP2 residues 178 to 188 (C-TRP2-11)
C-TRP2-13: CFANASVYDFFVWL (SEQ ID NO: 36); cysteine added to N-terminus of mTRP2 residues 176 to 188 (C-TRP2-13)
CM-TRP2-9: CMSVYDFFVWL (SEQ ID NO: 35); cysteine and methionine added to N-terminus of mTRP2 residues 180 to 188 (CM-TRP2-9)

Some entries repeat one wording, which the source may state once for all of them.
